Results: patent publication US20180193456A1 (HENLIUS BIOTECH, published 2018)
Results are given in words; binding and its absence hold for the method and conditions named. Some entries that bind do so weakly or less than the wild type.

Chains of the proteins cited; added tags and fusions are not shown. Residues count along the entry.
UniProt P35968, residues 20-1356: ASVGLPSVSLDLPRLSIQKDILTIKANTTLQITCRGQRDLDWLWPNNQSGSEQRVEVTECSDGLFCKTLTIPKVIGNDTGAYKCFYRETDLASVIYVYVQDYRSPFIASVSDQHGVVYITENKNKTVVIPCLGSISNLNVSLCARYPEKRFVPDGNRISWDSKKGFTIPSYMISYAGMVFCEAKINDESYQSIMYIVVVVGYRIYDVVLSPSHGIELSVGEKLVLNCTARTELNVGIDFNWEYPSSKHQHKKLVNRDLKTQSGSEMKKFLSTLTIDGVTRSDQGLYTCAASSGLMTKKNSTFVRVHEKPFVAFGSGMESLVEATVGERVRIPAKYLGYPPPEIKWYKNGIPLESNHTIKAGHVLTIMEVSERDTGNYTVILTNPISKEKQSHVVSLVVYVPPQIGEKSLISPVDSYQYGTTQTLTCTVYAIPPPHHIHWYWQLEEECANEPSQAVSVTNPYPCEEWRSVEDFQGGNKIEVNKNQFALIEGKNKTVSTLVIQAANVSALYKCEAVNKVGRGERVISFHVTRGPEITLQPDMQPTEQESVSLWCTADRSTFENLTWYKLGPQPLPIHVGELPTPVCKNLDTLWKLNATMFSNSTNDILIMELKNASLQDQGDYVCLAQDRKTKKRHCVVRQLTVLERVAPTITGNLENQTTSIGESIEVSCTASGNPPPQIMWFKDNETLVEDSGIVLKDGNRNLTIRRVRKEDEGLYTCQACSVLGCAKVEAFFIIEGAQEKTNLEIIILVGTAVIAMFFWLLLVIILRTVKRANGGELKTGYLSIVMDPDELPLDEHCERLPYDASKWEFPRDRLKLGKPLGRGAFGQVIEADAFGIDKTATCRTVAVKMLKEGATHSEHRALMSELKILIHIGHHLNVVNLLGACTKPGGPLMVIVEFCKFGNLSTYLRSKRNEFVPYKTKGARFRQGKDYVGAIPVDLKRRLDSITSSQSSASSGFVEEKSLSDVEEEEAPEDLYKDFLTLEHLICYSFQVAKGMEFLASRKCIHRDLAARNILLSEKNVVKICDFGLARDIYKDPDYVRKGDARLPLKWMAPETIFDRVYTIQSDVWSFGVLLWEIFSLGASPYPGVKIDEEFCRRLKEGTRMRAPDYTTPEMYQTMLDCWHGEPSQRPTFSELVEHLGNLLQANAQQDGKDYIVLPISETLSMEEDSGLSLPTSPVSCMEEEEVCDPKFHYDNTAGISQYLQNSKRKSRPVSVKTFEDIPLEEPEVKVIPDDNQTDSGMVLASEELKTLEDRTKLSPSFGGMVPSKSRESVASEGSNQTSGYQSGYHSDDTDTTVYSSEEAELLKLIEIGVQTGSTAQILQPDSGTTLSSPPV

Columns and labels:
[1] = molecular target: VEGFR2 on human endothelial cells (human) (UniProt P35968); experiment: flow cytometry on fixed HUVECs, biotinylated rabbit anti-human IgG and streptavidin-PE, MFI
[2] = molecular target: VEGFR2 on human endothelial cells (human) (UniProt P35968); experiment: flow cytometry on fixed HUVECs, biotinylated anti-human IgG and streptavidin-PE; FIG. 15 experiment: fixed HUVECs, detection with biotinylated rabbit anti-human IgG then streptavidin-PE
[3] = molecular target: VEGFR2 on human endothelial cells (human) (UniProt P35968); experiment: flow cytometry on fixed HUVECs, FITC-labelled anti-Fc secondary antibody, GeoMean

binding [1]: binds
binding [2]: binds
binding [3]: binds
B1: 1121N (antibody, V domains shown)
VH: EVQLVQSGGGLVKPGGSLRLSCAASGFTFSSYSMNWVRQAPGKGLEWVSSISSSSSYIYYADSVKGRFTISRDNAKNSLYLQMNSLRAEDTAVYYCARVTDAFDIWGQGTMVTVSS
VL: DIQMTQSPSSVSASIGDRVTITCRASQGIDNWLGWYQQKPGKAPKLLIYDASNLDTGVPSRFSGSGSGTYFTLTISSLQAEDFAVYFCQQAKAFPPTFGGGTKVDIKG
notes: Anti-VEGFR2 antibody of U.S. Pat. No. 7,498,414, positive control; Entries run into the start of the constant domains
